# Results published in PMC8191290, “Substrate specificities and reaction kinetics of the yeast oligosaccharyltransferase isoforms” (The Journal of Biological Chemistry, 2021).
# No constants are given. Whether binding was seen depends on the method and setting. Binding seen in cells or lysates may run through a third protein. Some binding calls cover weakened binding; strength is not graded here. Where a sequence is shown, tags or fusion partners need not be part of it.
# T1: Ost4p tagged C-terminally with the 1D4 epitope (S. cerevisiae) (UniProt Q99380)
# T1 sequence: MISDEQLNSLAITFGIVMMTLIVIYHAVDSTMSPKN
# B1: Ost1p (protein, UniProt P41543 23-476)
# chain: AQYEPPATWENVDYKRTIDVSNAYISETIEITIKNIASEPATEYFTAFESGIFSKVSFFSAYFTNEATFLNSQLLANSTTAPGDDGESEIRYGIIQFPNAISPQEEVSLVIKSFYNTVGIPYPEHVGMSEEQHLLWETNRLPLSAYDTKKASFTLIGSSSFEEYHPPNDESLLGKANGNSFEFGPWEDIPRFSSNETLAIVYSHNAPLNQVVNLRRDIWLSHWASTIQFEEYYELTNKAAKLSKGFSRLELMKQIQTQNMRQTHFVTVLDMLLPEGATDHYFTDLVGLVSTSHAERDHFFIRPRFPIFGGWNYNFTVGWTNKLSDFLHVSSGSDEKFVASIPILNGPPDTVYDNVELSVFLPEGAEIFDIDSPVPFTNVSIETQKSYFDLNKGHVKLTFSYRNLISQVANGQVLIKYDYPKSSFFKKPLSIACYIFTALMGVFVLKTLNMNVTN
# modifications: N-glycans at N99 and N217 (fully and hypoglycosylated forms)
# B2: Ost2p (protein, UniProt P46964 1-130)
# chain: MAKAPKANTPKVTSTSSAVLTDFQETFKTSKRAYFAQIEKYPKLKLIDTFCFFLVLLGVIQCTFIILIRDNFPFNAFLAGFIICVGQFVLLMSLRLQLCNSFPGISKNRAFAEFIVASLILHFVCLHFIN
# B3: Ost3p (protein, UniProt P48439 23-350)
# chain: MSSNRLLKLANKSPKKIIPLKDSSFENILAPPHENAYIVALFTATAPEIGCSLCLELESEYDTIVASWFDDHPDAKSSNSDTSIFFTKVNLEDPSKTIPKAFQFFQLNNVPRLFIFKPNSPSILDHSVISISTDTGSERMKQIIQAIKQFSQVNDFSLHLPMDWTPIITSTIITFITVLLFKKQSKLMFSIISSRIIWATLSTFFIICMISAYMFNQIRNTQLAGVGPKGEVMYFLPNEFQHQFAIETQVMVLIYGTLAALVVVLVKGIQFLRSHLYPETKKAYFIDAILASFCALFIYVFFAALTTVFTIKSPAYPFPLLRLSAPFK
# B4: Ost5p (protein, UniProt Q92316 1-86)
# chain: MTYEQLYKEFHSSKSFQPFIHLDTQPKFAICGLIVTLAVLSSALFAVGSKSSYIKKLFFYTILSVIGSLFAGLTTVFASNSFGVYV
# B5: Ost6p (protein, UniProt Q03723 25-332)
# chain: TASHNIDDILQLKDDTGVITVTADNYPLLSRGVPGYFNILYITMRGTNSNGMSCQLCHDFEKTYHAVADVIRSQAPQSLNLFFTVDVNEVPQLVKDLKLQNVPHLVVYPPAESNKQSQFEWKTSPFYQYSLVPENAENTLQFGDFLAKILNISITVPQAFNVQEFVYYFVACMVVFIFIKKVILPKVTNKWKLFSMILSLGILLPSITGYKFVEMNAIPFIARDAKNRIMYFSGGSGWQFGIEIFSVSLMYIVMSALSVLLIYVPKISCVSEKMRGLLSSFLACVLFYFFSYFISCYLIKNPGYPIVF
# B6: Stt3p (protein, UniProt P39007 1-718)
# chain: MGSDRSCVLSVFQTILKLVIFVAIFGAAISSRLFAVIKFESIIHEFDPWFNYRATKYLVNNSFYKFLNWFDDRTWYPLGRVTGGTLYPGLMTTSAFIWHALRNWLGLPIDIRNVCVLFAPLFSGVTAWATYEFTKEIKDASAGLLAAGFIAIVPGYISRSVAGSYDNEAIAITLLMVTFMFWIKAQKTGSIMHATCAALFYFYMVSAWGGYVFITNLIPLHVFLLILMGRYSSKLYSAYTTWYAIGTVASMQIPFVGFLPIRSNDHMAALGVFGLIQIVAFGDFVKGQISTAKFKVIMMVSLFLILVLGVVGLSALTYMGLIAPWTGRFYSLWDTNYAKIHIPIIASVSEHQPVSWPAFFFDTHFLIWLFPAGVFLLFLDLKDEHVFVIAYSVLCSYFAGVMVRLMLTLTPVICVSAAVALSKIFDIYLDFKTSDRKYAIKPAALLAKLIVSGSFIFYLYLFVFHSTWVTRTAYSSPSVVLPSQTPDGKLALIDDFREAYYWLRMNSDEDSKVAAWWDYGYQIGGMADRTTLVDNNTWNNTHIAIVGKAMASPEEKSYEILKEHDVDYVLVIFGGLIGFGGDDINKFLWMIRISEGIWPEEIKERDFYTAEGEYRVDARASETMRNSLLYKMSYKDFPQLFNGGQATDRVRQQMITPLDVPPLDYFDEVFTSENWMVRIYQLKKDDAQGRTLRDVGELTRSSTKTRRSIKRPELGLRV
# modifications: N-glycan at N539 (most abundant Man8GlcNAc2)
# B7: Swp1p (protein, UniProt Q02795 20-286)
# chain: YVAQDVHVSFPSTAGKSRVMIGKVEPRIGIDETVPTTITVEDPNEVIQVNFAIESTNKPFQNTLLIGLPNKNLEMAFEPEIKDNGKLSMYKYRIDLAKLDAALLQEASRSPEPIKATLILASSTAKPKENLFREILQLNLNFDVDHSDSSLVDKFGIKPEIHHIFHAEPKRVAKPIAVIFVLIIFITILSLIVTWLNSCAAAFNNIPTGVTAVYFLGFIATIVGFEVIFARYYLGTSIFETLFSSLYLGAPGLLTSTKFLRSFGQTI
# B8: Wbp1p (protein, UniProt P33767 21-430)
# chain: TQTSRTLVLYDQSTEPLEEYSVYLKDLEQRNYKLEYLDINSTSTTVDLYDKEQRLFDNIIVFPTKGGKNLARQIPVKQLIKFFENEGNILCMSSPGAVPNTIRLFLNELGIYPSPKGHVIRDYFSPSSEELVVSSNHLLNKYVYNARKSEDFVFGESSAALLENREQIVPILNAPRTSFTESKGKCNSWTSGSQGFLVVGFQNLNNARLVWIGSSDFLKNKNQDSNQEFAKELLKWTFNEKSVIKSVHAVHSHADGTSYDEEPYKIKDKVIYSVGFSEWNGEEWLPHIADDIQFELRQVDPYYRLTLSPSGNDSETQYYTTGEFILPDRHGVFTFLTDYRKIGLSFTTDKDVKAIRHLANDEYPRSWEISNSWVYISAICGVIVAWIFFVVSFVTTSSVGKKLETFKKTN
# modifications: N-glycans at N60 and N332 (fully and hypoglycosylated forms)
# Biological target: T1, Ost4p tagged C-terminally with the 1D4 epitope (S. cerevisiae)
# Assay: co-IP + SEC; DDM/CHS-solubilized yeast membranes bound to Rho-1D4 antibody-coupled sepharose beads through Ost4p-1D4, eluted with 1D4 peptide, then Superose 6 Increase size-exclusion chromatography (peak at ~14 ml, ~280 kDa), 4 °C, 50 mM Hepes pH 7.5, 150 mM NaCl; subunits seen by silver-stained SDS-PAGE; strains expressing only Ost3p or only Ost6p (also OST3 strain with alg6 deletion)
row,Binder,binding
1,B1,binds
2,B2,binds
3,B3,binds
4,B4,binds
5,B5,binds
6,B6,binds
7,B7,binds
8,B8,binds
